Results reported in paper PMC7819943, “Rice protein-binding microarrays: a tool to detect cis-acting elements near promoter regions in rice”.
Some of the results follow.

Protein sequences, listed by entry. Tags and fused reporters are not part of them.
UniProt Q0JBA9, entry or part of it: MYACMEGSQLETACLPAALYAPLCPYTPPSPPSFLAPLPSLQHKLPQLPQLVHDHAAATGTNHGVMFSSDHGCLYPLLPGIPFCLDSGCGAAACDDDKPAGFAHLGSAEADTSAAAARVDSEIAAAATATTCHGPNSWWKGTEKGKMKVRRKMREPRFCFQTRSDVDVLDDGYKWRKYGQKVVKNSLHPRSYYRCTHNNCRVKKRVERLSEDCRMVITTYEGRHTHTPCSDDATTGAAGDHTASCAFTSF

Each sequence was assayed against OsWRKY34 (Oryza sativa, UniProt Q0JBA9 1-250) (assay: protein-binding microarray (RPBM); PBS, 2% BSA, 51.3 ng/ul salmon testes DNA, 50 uM zinc acetate, 200 nM TF, 25 C, 1 h; high values mean tight binding). Conditions: protein: recombinant; tags: N-terminal polyhistidine and DsRed monomer fusion (pET32a); label: CyDye5-dUTP incorporated in the synthesized complementary strand; 3' TTTTT single-stranded linker to array surface; dsDNA, one strand shown.
Procedure, shortened: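 Transcription factors were made in E. coli BL21-CodonPlus as N-terminal fusions to a polyhistidine tag and DsRed, then purified on Ni–NTA. After primer extension with Cy5-dUTP and blocking with 2% BSA, a custom Agilent array was exposed for 1 h at 25 °C to 200 nM protein in PBS, 2% BSA, salmon testes DNA and 50 µM zinc acetate. Washed arrays were scanned on an Axon 4000B, and the binding signal is per-feature fluorescence intensity in arbitrary units.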
In the case of “GATCTAGAAGGCGACTCCAATTATCACCACATTTACAATTCGGAGTCACCTAGTGCAG”, the binding signal is reported as 8130 fluorescence intensity (a.u.). For “TAACCAGACCGTCACTGATACATGGGTCCCATAGTTTTTTCGGAGTCACCTAGTGCAG”, the binding signal was 10500 fluorescence intensity (a.u.). With “ACATGGACATATGTTACCACCGTCAATCAGCTTTGCTATTCGGAGTCACCTAGTGCAG” the binding signal was 9750 fluorescence intensity (a.u.). With “CCAACCTCTTTTTTCTATCCCTTCGCGTGGGAAAAAGGAACGGAGTCACCTAGTGCAG” the binding signal was 8390 fluorescence intensity (a.u.). With “CCTATATACGACTACCTTTATATACTACTCTATTCATTTCCGGAGTCACCTAGTGCAG” the binding signal was 10400 fluorescence intensity (a.u.). With “AGCTGCCCAGTCATTAGCATGGTACTTCCTCCGTTTTATACGGAGTCACCTAGTGCAG” the binding signal was 8440 fluorescence intensity (a.u.). “ACCATCCATCTTTGTCTTTACCTATTGGACCACTAGAACACGGAGTCACCTAGTGCAG” was tested, and the binding signal was 9890 fluorescence intensity (a.u.). For “CTCCACACCATCATCACGCGTCAGTGTGTCACGTGACTCACGGAGTCACCTAGTGCAG”, the binding signal was 8070 fluorescence intensity (a.u.). For “ATTGTTTTTTTTCTTTCTTTTTGCAAATCTCGCTTCGCTTCGGAGTCACCTAGTGCAG”, the binding signal was 8540 fluorescence intensity (a.u.). For “TCCCTCTCTCTCTCTAAAACCTCGCTGTCTTTCTCTATCTCGGAGTCACCTAGTGCAG”, the binding signal was 9010 fluorescence intensity (a.u.). With “CTCCACCCCGATGGCCCGATCTCCGCGACCCACCTGCGCACGGAGTCACCTAGTGCAG” the binding signal was 8230 fluorescence intensity (a.u.). For “AATGAGTAGGCTGTGTTAATGTGGACTGTTTGTGTGTTGACGGAGTCACCTAGTGCAG”, the binding signal was 9120 fluorescence intensity (a.u.). With “CTCACCTGCTTCTCCTGCTCGAGCGTACGTTTCAACGCCACGGAGTCACCTAGTGCAG” the binding signal was 8060 fluorescence intensity (a.u.). “CGATGTGTATTTGAAGATGCTTATCCTAATTAACCTTGCTCGGAGTCACCTAGTGCAG” was tested, and the binding signal was 8310 fluorescence intensity (a.u.). “GAAATGTTGGTGACGGTGGAGGATTTTGTTGTTTTAGTGTCGGAGTCACCTAGTGCAG” was tested, and the binding signal was 9790 fluorescence intensity (a.u.). For “TGACACATGAATGATTTTTTTACTATGTTTGCCATATTGTCGGAGTCACCTAGTGCAG”, the binding signal was 10700 fluorescence intensity (a.u.). In the case of “ACATGCTAGCTTCTTTTTCTCTGAACATTTAGCATTGTTCCGGAGTCACCTAGTGCAG”, the binding signal is reported as 9620 fluorescence intensity (a.u.). For “CTATAAGTTCTCACGTCTAATTTTCATCGTCCGTCTTATTCGGAGTCACCTAGTGCAG”, the binding signal was 10400 fluorescence intensity (a.u.). With “CTGTGCCTTCAAGAGAATAGGTTCGTTTGTCTCTTCCATTCGGAGTCACCTAGTGCAG” the binding signal was 8300 fluorescence intensity (a.u.). With “AACCCTACACACCCCGGTCAAGCTGTCTATTGATCGGTTACGGAGTCACCTAGTGCAG” the binding signal was 12600 fluorescence intensity (a.u.). “ACCTCACCTATAAGCCTCCCGTCGGTCGCCACCGCTTCTCCGGAGTCACCTAGTGCAG” was tested, and the binding signal was 8230 fluorescence intensity (a.u.). In the case of “TTACGCCTCGAGATCCGTGCGGCGCCCCATCCGCCGCGGCCGGAGTCACCTAGTGCAG”, the binding signal is reported as 8460 fluorescence intensity (a.u.). For “AGATTAACACTTATCTCCTTGTGTTGTTGTCCTTGCTCAGCGGAGTCACCTAGTGCAG”, the binding signal was 11200 fluorescence intensity (a.u.). With “CAAAAATATTCAGCCGCAATCCTTCTCTTTTTACACCATACGGAGTCACCTAGTGCAG” the binding signal was 8720 fluorescence intensity (a.u.). “CCTCCGTTTCACAATGTAAGTCATTCTAGCATTTCCCACACGGAGTCACCTAGTGCAG” was tested, and the binding signal was 8370 fluorescence intensity (a.u.). “CACCACATTGATCCCTCCGACGCTGTCGTCCACCGCATTCCGGAGTCACCTAGTGCAG” was tested, and the binding signal was 8510 fluorescence intensity (a.u.). With “CCCGCGCTTAACTCGCTCTCGCCTCCCGCATCGCATCTCCCGGAGTCACCTAGTGCAG” the binding signal was 9390 fluorescence intensity (a.u.). For “ATTTACTGATTACTGCCCCAGATTTGCTACAGTCCCCATACGGAGTCACCTAGTGCAG”, the binding signal was 8140 fluorescence intensity (a.u.). In the case of “AGTGGCCTTCATCTCGGTGTTCCCCATTTGAGCTAGCTAACGGAGTCACCTAGTGCAG”, the binding signal is reported as 11300 fluorescence intensity (a.u.). In the case of “CGCCGCCGCCGCCGCCGCCGCGCTCGCTCGCTCGCTTCTTCGGAGTCACCTAGTGCAG”, the binding signal is reported as 10200 fluorescence intensity (a.u.). In the case of “GGTTTCCATGTCCAACGTTTGACTGTCCGTCTTATATGAACGGAGTCACCTAGTGCAG”, the binding signal is reported as 8850 fluorescence intensity (a.u.). “TTTGTTAATTTAGTGCTCGATCGTACACCTCTGGATCTCACGGAGTCACCTAGTGCAG” was tested, and the binding signal was 8060 fluorescence intensity (a.u.). With “ATGAACTTAGTTGTTTTTTTTTGGGTTTTACTTGCATAATCGGAGTCACCTAGTGCAG” the binding signal was 8220 fluorescence intensity (a.u.). With “ATATCTGTAGTTCGTTGCTATTCTCTCTTATCTTTTATCTCGGAGTCACCTAGTGCAG” the binding signal was 13900 fluorescence intensity (a.u.). For “CACATGTCTCTGAACCTCCTGAACCCTCTTGCTGTCTCATCGGAGTCACCTAGTGCAG”, the binding signal was 8460 fluorescence intensity (a.u.). With “TGAAGCCAGTTCCACCTCATTCTTGTGTTTTTATGCTTCACGGAGTCACCTAGTGCAG” the binding signal was 10700 fluorescence intensity (a.u.). “TCTTCTAATATATTGACGTGCAATTTTTTTACGCGTTCGCCGGAGTCACCTAGTGCAG” was tested, and the binding signal was 9860 fluorescence intensity (a.u.). For “TATATATATATATATATATATATATCTGATGCTCTCTTGCCGGAGTCACCTAGTGCAG”, the binding signal was 31700 fluorescence intensity (a.u.). “CATTGATCACTCGCTCTGCTCACATTCTGATACTGCGATGCGGAGTCACCTAGTGCAG” was tested, and the binding signal was 8540 fluorescence intensity (a.u.). “GGCTTCCCTCCGGCTCGAGCCAATCTCTCGCTGTGTCTCTCGGAGTCACCTAGTGCAG” was tested, and the binding signal was 8320 fluorescence intensity (a.u.). “TTACCCTTGTACCCATATACACACTAGTCGCTTTCTCTCACGGAGTCACCTAGTGCAG” was tested, and the binding signal was 10200 fluorescence intensity (a.u.). For “CTGCGGGAGGACGGGTCCGGGGCGGGGTCCGGGTCGGTGCCGGAGTCACCTAGTGCAG”, the binding signal was 9780 fluorescence intensity (a.u.). For “CCACGTCGTCGTTGATCTTTCCTCTTTCAGGCTTAGCCCTCGGAGTCACCTAGTGCAG”, the binding signal was 8930 fluorescence intensity (a.u.). “CATAGGGGTAGGGTTTGCTGTGTGCCTTCATAGGGTTGAGCGGAGTCACCTAGTGCAG” was tested, and the binding signal was 11700 fluorescence intensity (a.u.). “CTATAAGTACACTCGCGGGGCACGCTCTCTCTCTCTCCGACGGAGTCACCTAGTGCAG” was tested, and the binding signal was 10200 fluorescence intensity (a.u.). “GTGTCCGACCATATTCGATCCTTATTCGTATCCGCAATAACGGAGTCACCTAGTGCAG” was tested, and the binding signal was 8340 fluorescence intensity (a.u.). For “CGTCGCCGCCGCCGGCGTCTTCTCCACCTCCTCCGCGCCGCGGAGTCACCTAGTGCAG”, the binding signal was 8030 fluorescence intensity (a.u.). “AGGCGGCGGGGTGGCGGTGGTGGTGGTGGTGGTGGTGATGCGGAGTCACCTAGTGCAG” was tested, and the binding signal was 19000 fluorescence intensity (a.u.). For “GTTTTATTGATGGGAAAAAAATTACTTTCCTGTTTTCTATCGGAGTCACCTAGTGCAG”, the binding signal was 8450 fluorescence intensity (a.u.). For “CGCAATTCTGGGCCTGCAACCACATCGCTTCGCCGCCGTACGGAGTCACCTAGTGCAG”, the binding signal was 9840 fluorescence intensity (a.u.). In the case of “ACTCGATTTCCTTTCTTGGCCTCTCCTCCTCTGACACAGGCGGAGTCACCTAGTGCAG”, the binding signal is reported as 8550 fluorescence intensity (a.u.). In the case of “GTACTTAAGAATATGCACTCATCCAAGCCATGTTCCATACCGGAGTCACCTAGTGCAG”, the binding signal is reported as 9580 fluorescence intensity (a.u.). For “CGATTCCACCACTTGACACATCCATCGATCACTCCTCCCCCGGAGTCACCTAGTGCAG”, the binding signal was 8910 fluorescence intensity (a.u.). In the case of “GTCTGAGTACACTTCTGAGGCTTCTTTGGTCGTTTTGGCCCGGAGTCACCTAGTGCAG”, the binding signal is reported as 9790 fluorescence intensity (a.u.).
